Measurements from the supplement of paper PMC10373366.
This is one part of the list. Many values rest on one well or one pass, so single values are uncertain.

Assays:
A2780 = assay: cell growth inhibition ratio vs untreated control (CCK8); higher = stronger inhibition of cell viability; conditions: 10 µM; 48 h
Description: (§1)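 Natural product library (Topscience) screened at 10 µM final concentration for 48 h on ovarian cancer A2780 cells and patient-derived ovarian cancer cells (PDC) in 96-well plates; viability read by CCK8 and reported as inhibition ratio (%) relative to untreated control. Single-dose primary screen.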

[1] = tested on: patient-derived ovarian cancer cells (PDC); assay: as above; conditions: 10 µM; 48 h
Description: as §1

Row | Structure (SMILES) | cell growth inhibition ratio (A2780) [%] | cell growth inhibition ratio [1] [%]
1 | C[C@H]1[C@H](C)CC[C@]2(C(=O)O[C@@H]3O[C@H](CO[C@@H]4O[C@H](CO)[C@@H](O[C@@H]5O[C@H](C)[C@H](O)[C@@H](O)[C@H]5O)[C@H](O)[C@H]4O)[C@@H](O)[C@H](O)[C@H]3O)CC[C@]3(C)C(=CC[C@@H]4[C@@]5(C)C[C@@H](O)[C@H](O)[C@@](C)(CO)[C@@H]5CC[C@]43C)[C@H]12 [Asiaticoside] | -7.4 | 6.07
2 | Oc1cc(O)c2c(c1)O[C@H](c1ccc(O)c(O)c1)[C@@H](O)C2 [(+)-Catechin Hydrate] | 4.72 | 6.19
3 | C/C=C(/C)C(=O)O [Angelic Acid] | 5.31 | -6.11
4 | CN1C(=O)CC[C@H]1c1cccnc1 [(-)-Cotinine] | 15.2 | -2.07
5 | C[C@@H]1O[C@@H](O[C@H]2[C@H](O[C@H]3[C@H](O[C@H]4CC[C@]5(C)[C@H]6CC=C7[C@@H]8CC(C)(C)CC[C@]8(C(=O)O)CC[C@@]7(C)[C@]6(C)CC[C@H]5C4(C)C)OC[C@H](O)[C@@H]3O)O[C@H](CO)[C@@H](O)[C@@H]2O)[C@H](O)[C@H](O)[C@H]1O [Raddeanin(Anemodeanin) A] | 93.5 | 91.7
6 | CC(C)=CCC[C@](C)(O[C@@H]1O[C@H](CO)[C@@H](O)[C@H](O)[C@H]1O)[C@H]1CC[C@]2(C)[C@@H]1[C@H](O)C[C@@H]1[C@@]3(C)CC[C@H](O)C(C)(C)[C@@H]3[C@@H](O[C@@H]3O[C@H](CO)[C@@H](O)[C@H](O)[C@H]3O[C@@H]3O[C@@H](C)[C@H](O)[C@@H](O)[C@H]3O)C[C@]12C [Ginsenoside Re] | 6.23 | 1.4
7 | C/C=C(/C)C(=O)OC(C)(C)[C@@H]1Cc2c(ccc3ccc(=O)oc23)O1 [Columbianadin] | -7.97 | 0.17
8 | O=Cc1ccc(O)c(O)c1 [Protocatechualdehyde] | 16.4 | -20.9
9 | CC1CCC2(O)C(C)(C)C3CCC2(C)C1C3 (centres undefined) [Patchouli alcohol] | 4.13 | -3.96
10 | CC[C@@H]1/C=C(\C)C[C@H](C)C[C@H](OC)[C@H]2O[C@@](O)(C(=O)C(=O)N3CCCC[C@H]3C(=O)O[C@H](/C(C)=C/[C@@H]3CC[C@@H](O)[C@H](OC)C3)[C@H](C)[C@@H](O)CC1=O)[C@H](C)C[C@@H]2OC [Ascomycin (FK520)] | 84 | 52.9
11 | O=c1ccc2ccccc2o1 [Coumarin] | 1.76 | -4.33
12 | CC1=C(C/C=C(\C)CCC[C@H](C)CCC[C@H](C)CCCC(C)C)C(=O)c2ccccc2C1=O [Vitamin K1] | 15.9 | -4.55
13 | CCCCCCCCCCCCCCCCCCCCCCO [Behenic alcohol] | 5.89 | -0.341
14 | O=c1c(O)c(-c2ccc(O)c(O)c2)oc2cc(O)cc(O)c12 [Quercetin Dihydrate] | -32.2 | 7.98
15 | CC[C@H]1OC(=O)[C@H](C)[C@@H](O[C@H]2C[C@@](C)(OC)[C@@H](O)[C@H](C)O2)[C@H](C)[C@@H](O[C@@H]2O[C@H](C)C[C@H](N(C)C)[C@H]2O)[C@](C)(O)C[C@@H](C)[C@@H]2N[C@@H](COCCOC)O[C@H]([C@H]2C)[C@]1(C)O [Dirithromycin] | 1.86 | 7.47
16 | COc1ccc(CCC(=O)c2c(O)cc(O[C@@H]3O[C@H](CO)[C@@H](O)[C@H](O)[C@H]3O[C@@H]3O[C@@H](C)[C@H](O)[C@@H](O)[C@H]3O)cc2O)cc1O [Neohesperidin Dihydrochalcone (Nhdc)] | 9.23 | -7.74
17 | CC[C@H](/C=C/[C@@H](C)[C@H]1CC[C@H]2[C@@H]3CC=C4C[C@@H](O)CC[C@]4(C)[C@H]3CC[C@]12C)C(C)C [Stigmasterol] | 3.22 | -7.76
18 | C[C@H](CCC(=O)O)[C@H]1CC[C@H]2[C@@H]3C[C@H](O)[C@@H]4C[C@H](O)CC[C@]4(C)[C@H]3CC[C@]12C [Hyodeoxycholic acid (HDCA)] | 4.8 | 6.37
19 | CC[C@@H]1C(=O)OC[C@@H]1Cc1cncn1C [Pilocarpine nitrate] | 2.17 | -21.7
20 | OC1OC[C@@H](O)[C@@H](O)[C@@H]1O (stereo partly drawn) [D(-)-Arabinose] | 3.45 | 4.31
21 | CC(C)(CO)[C@@H](O)C(=O)NCCCO [Dexpanthenol] | 12.1 | -7.26
22 | C[C@H](CCC(=O)NCC(=O)O)[C@H]1CC[C@H]2[C@@H]3[C@H](O)C[C@@H]4C[C@H](O)CC[C@]4(C)[C@H]3C[C@H](O)[C@]12C [Glycocholic acid] | 15.5 | -9.21
23 | CC1=C(/C=C/C(C)=C/C=C/C(C)=C/C(=O)O)C(C)(C)CCC1 [Tretinoin] | -14.9 | 13.5
24 | C/C=C1\[C@H]2C=C(C)C[C@]1(N)c1ccc(=O)[nH]c1C2 [(-)-Huperzine A (HupA)] | -0.716 | -5.91

Row | Structure (SMILES) | cell growth inhibition ratio (A2780) [%] | cell growth inhibition ratio [1] [%]
25 | OCc1ccc(O)cc1 [4-Hydroxybenzyl alcohol] | 5.05 | -7.35
26 | Oc1cc2c(cc1O)[C@@H]1c3ccc(O)c(O)c3OC[C@]1(O)C2 [Hematoxylin] | -26.9 | -9.41
27 | NCCCNCCCCNCCCN [Spermine] | -6.03 | -15.1
28 | COc1cc(C[C@@H](CO[C@@H]2O[C@H](CO)[C@@H](O)[C@H](O)[C@H]2O)[C@H](CO[C@@H]2O[C@H](CO)[C@@H](O)[C@H](O)[C@H]2O)Cc2ccc(O)c(OC)c2)ccc1O [Secoisolariciresinol diglucoside] | -0.369 | 4.99
29 | C=C(C)[C@@H]1CC[C@]2(CO)CC[C@]3(C)[C@H](CC[C@@H]4[C@@]5(C)CC[C@H](O)C(C)(C)[C@@H]5CC[C@]43C)[C@@H]12 [Betulin] | -2.29 | 13.3
30 | C[C@@H]1CC[C@@]2(OC1)O[C@H]1C[C@H]3[C@@H]4CC=C5C[C@@H](O)CC[C@]5(C)[C@H]4CC[C@]3(C)[C@H]1[C@@H]2C [Diosgenin] | 11.8 | 10.2
31 | C=C1C[C@]23C[C@@]1(O)CC[C@H]2[C@@]12C=C[C@H](O)[C@@](C)(C(=O)O1)[C@H]2[C@@H]3C(=O)O [Gibberellic acid] | 2.06 | -19.9
32 | C=C[C@H]1CN2CC[C@H]1C[C@H]2[C@H](O)c1ccnc2ccc(OC)cc12 [Quinine] | -17.3 | -4.42
33 | O=c1c(-c2ccc(O)cc2)coc2c([C@@H]3O[C@H](CO)[C@@H](O)[C@H](O)[C@H]3O)c(O)ccc12 [Puerarin (Kakonein)] | 4.98 | -12.2
34 | CC(=O)O[C@@H]1[C@@H](OC(C)=O)[C@H](O[C@H]2CC[C@]34C[C@]35CC[C@]3(C)[C@@H]([C@@]6(C)CC[C@@H](C(C)(C)O)O6)[C@@H](O)C[C@@]3(C)[C@@H]5C[C@H](O[C@@H]3O[C@H](CO)[C@@H](O)[C@H](O)[C@H]3O)[C@H]4C2(C)C)OC[C@H]1O [Astragaloside I] | 10.8 | -11.4
35 | NC(=O)NC1NC(=O)NC1=O (centres undefined) [Allantoin] | 5.48 | -7.36
36 | Cc1nc(C)c(C)nc1C [Tetramethylpyrazine] | 0.655 | -2.36
37 | COc1cc(-c2oc3cc(O)cc(O)c3c(=O)c2O[C@@H]2O[C@H](CO[C@@H]3O[C@@H](C)[C@H](O)[C@@H](O)[C@H]3O)[C@@H](O)[C@H](O)[C@H]2O[C@@H]2O[C@@H](C)[C@H](O)[C@@H](O)[C@H]2O)ccc1O [Typhaneoside] | 16.9 | 2.97
38 | C=C1CC[C@H]2C(=C)CC[C@H]3C(=C)C(=O)O[C@@H]3[C@@H]12 [Dehydrocostus Lactone] | 61.6 | 33.8
39 | CC(=O)c1c(O)cc(O)cc1O [Phloracetophenone] | 10.9 | 6.92
40 | CC1(C)[C@@H](O)CC[C@]2(C)[C@H]3C(=O)C=C4[C@H]5C[C@@](C)(C(=O)O)CC[C@]5(C)CC[C@@]4(C)[C@]3(C)CC[C@@H]12 [Glycyrrhetinic acid(Enoxolone)] | 6.62 | -13.9
41 | COc1cc2c(cc1CC=C(C)C)C(=O)C[C@@H](c1ccc(O)cc1)O2 [Bavachinin] | 16.2 | 6.89
42 | CC(=O)OCC(=O)[C@@]1(O)CC[C@H]2[C@@H]3CCC4=CC(=O)CC[C@]4(C)[C@H]3C(=O)C[C@@]21C [Cortisone acetate] | 12 | 3.66
43 | C[C@@H]1C(=O)O[C@H](C)[C@H]1C[C@@H](O)[C@](C)(O)[C@H]1CC[C@@]2(O)C3=CC(=O)[C@@H]4C[C@@H](O)[C@@H](O)C[C@]4(C)[C@H]3CC[C@]12C [Cyasterone] | 10.8 | -11.6
44 | C[C@H]1O[C@@H](O[C@H]2CC[C@@]3(C)[C@@H](CC[C@]4(C)[C@@H]3C=CC3=C5CC(C)(C)CC[C@]5(CO)[C@H](O)C[C@]34C)[C@]2(C)CO)[C@H](O)[C@@H](O[C@@H]2O[C@H](CO)[C@@H](O)[C@H](O)[C@H]2O)[C@H]1O [Saikosaponin B2] | 3.75 | 10
45 | C[C@@H]1O[C@@H](O[C@H]2[C@H](OC(=O)[C@]34CCC(C)(C)C[C@H]3C3=CC[C@@H]5[C@@]6(C)C[C@H](O)[C@H](O[C@@H]7O[C@H](CO)[C@@H](O)[C@H](O)[C@H]7O)C(CO)(CO)[C@@H]6CC[C@@]5(C)[C@]3(C)C[C@H]4O)OC[C@H](O)[C@@H]2O)[C@H](O)[C@H](O)[C@H]1O[C@@H]1OC[C@@H](O)[C@H](O[C@@H]2OC[C@](O)(CO)[C@H]2O)[C@H]1O [Platycodin D] | 39.1 | 9.11
46 | O=c1[nH]cnc2c1ncn2[C@H]1C[C@H](O)[C@@H](CO)O1 [2'-Deoxyinosine] | -2.56 | 21.6
47 | C[C@@H]1O[C@H]2O[C@H]3[C@@H](OC[C@H](O)[C@@H]3O)OC(=O)[C@]34CCC(C)(C)C[C@H]3C3=CC[C@H]5[C@@]6(C)C[C@H](O)[C@H](O[C@@H]7O[C@H](CO)[C@@H](O)[C@H](O)[C@H]7O[C@@H]7OC[C@H](OC(=O)C[C@](C)(O)CC(=O)O[C@@H]1[C@@H](O[C@@H]1OC[C@@H](O)[C@H](O)[C@H]1O)[C@H]2O)[C@H](O)[C@H]7O)[C@@](C)(CO)[C@@H]6CC[C@@]5(C)[C@]3(C)CC4 [Tubeimoside I] | 78.2 | 56.2

3 entries drawn at random from those above, as already listed:
Row | Structure (SMILES) | cell growth inhibition ratio (A2780) [%] | cell growth inhibition ratio [1] [%]
28 | COc1cc(C[C@@H](CO[C@@H]2O[C@H](CO)[C@@H](O)[C@H](O)[C@H]2O)[C@H](CO[C@@H]2O[C@H](CO)[C@@H](O)[C@H](O)[C@H]2O)Cc2ccc(O)c(OC)c2)ccc1O [Secoisolariciresinol diglucoside] | -0.369 | 4.99
42 | CC(=O)OCC(=O)[C@@]1(O)CC[C@H]2[C@@H]3CCC4=CC(=O)CC[C@]4(C)[C@H]3C(=O)C[C@@]21C [Cortisone acetate] | 12 | 3.66
33 | O=c1c(-c2ccc(O)cc2)coc2c([C@@H]3O[C@H](CO)[C@@H](O)[C@H](O)[C@H]3O)c(O)ccc12 [Puerarin (Kakonein)] | 4.98 | -12.2
